Counter-ions that a name gives are not always drawn. Like-named read-outs stand apart in the source and are kept apart here. In all, about 3,300 compounds went through this assay and about 95 (3%) showed an effect of 50% or more. Some of the results follow.
System: HCoV-229E
Parameters: species or system Huh-7; HTS, protection from HCoV-229E induced cell death, luminescent cell viability (CellCounting-Lite 2.0), inhibition rate
Conditions: 24 h post infection, 1 h compound pre-incubation, 10 µM, inhibitor

SMILES | 229E Inhibition rate [%] | 229E Inhibition rate (229E Inhibition rate, 24 h) [%]
CO[C@]1(CC[C@@H](C)CO[C@@H]2O[C@H](CO)[C@@H](O)[C@H](O)[C@H]2O)O[C@H]2C[C@H]3[C@@H]4CC=C5C[C@@H](O[C@@H]6O[C@H](CO)[C@@H](O[C@@H]7O[C@@H](C)[C@H](O)[C@@H](O)[C@H]7O)[C@H](O)[C@H]6O[C@@H]6O[C@@H](C)[C@H](O)[C@@H](O)[C@H]6O)CC[C@]5(C)[C@H]4CC[C@]3(C)[C@H]2[C@@H]1C [Methyl protodioscin] | 8.3 | 
OC[C@H]1O[C@H](O)[C@H](O)[C@@H](O)[C@@H]1O [alpha-D-glucose] | 0 | 
O=C(O)C(O)Cc1ccccc1 (racemic) [DL-3-Phenyllactic acid] | 22.4 | 
O=C(O)C(CO)c1ccccc1 (stereo not drawn) [Tropic acid] | 0 | 
CSSSC [Dimethyl trisulfide] | 0 | 
C[C@H](O)[C@@H](O)[C@@H](O)[C@H](O)CO [L-Fucitol] | 12.8 | 
CC(C)=CCc1c(O)ccc2ccc(=O)oc12 [Osthenol] | 14.9 | 
C[C@@H]1O[C@@H](O[C@H]2[C@H](Oc3cc(O)c4c(=O)cc(-c5ccc(O)cc5)oc4c3)O[C@H](CO)[C@@H](O)[C@@H]2O)[C@H](O)[C@H](O)[C@H]1O [Rhoifolin] | 21 | 
CCCCCC[C@@H](O)C/C=C\CCCCCCCC(=O)O [Ricinoleic acid] | 14.7 | 
COc1cc(-c2oc3cc(O)cc(O)c3c(=O)c2O[C@@H]2O[C@H](CO)[C@@H](O)[C@H](O)[C@H]2O[C@@H]2O[C@@H](C)[C@H](O)[C@@H](O)[C@H]2O)ccc1O [Isorhamnetin-3-O-neohespeidoside] | 0 | 
O=c1c(O[C@@H]2O[C@H](CO)[C@@H](O)[C@H](O)[C@H]2O)c(-c2ccc(O)cc2)oc2cc(O)cc(O)c12 [Astragalin] | 34.6 | 
O=C(O[C@H]1[C@H](Oc2c(-c3ccc(O)c(O)c3)oc3cc(O)cc(O)c3c2=O)O[C@H](CO)[C@H](O)[C@@H]1O)c1cc(O)c(O)c(O)c1 [2"-O-Galloylhyperin] | 10 | 
O=C(CCc1ccccc1)C[C@@H](O)/C=C/c1ccccc1 [(5R,6E)-5-Hydroxy-1,7-diphenyl-6-hepten-3-one] | 37.1 | 
O=C(O)CNC(=O)Cc1ccccc1 [2-(2-Phenylacetamido)acetic acid] | 20.4 | 
COc1cc(-c2cc(=O)c3c(O)cc(O)cc3o2)cc(OC)c1O [Tricin] | 25.9 | 
C=C1C(=O)O[C@@H]2/C=C(\C)[C@@H](OC(C)=O)C/C=C(\COC(C)=O)C[C@@H](OC(=O)/C(C)=C/CO)[C@@H]12 [Eupalinolide B] |  | 34.9
CO[C@@H]1O[C@H](CO)[C@H](O)[C@H](O)[C@H]1O [Methyl β-D-Galactopyranoside] | 9.6 | 
COC(=O)C1=CC[C@@]23CC[C@@H]([C@@](C)(/C=C/C=C(\C)C(=O)O)OC2=O)[C@@]3(OC(C)=O)CC1 [Pseudolaric Acid B] | 16.3 | 
CN1C(=O)/C(=C2/C(=O)Nc3ccccc32)c2ccccc21 [Meisoindigo] | 20 | 
CC1(C)[C@H](O)CC[C@@]2(C)[C@@H]3CC[C@](C)([C@@H](O)CO[C@@H]4O[C@H](CO)[C@@H](O)[C@H](O)[C@H]4O)C=C3CC[C@H]12 [Darutoside] | 8.8 | 

Reformatted tab-delimited: part of the list above
SMILES	229E Inhibition rate [%]	229E Inhibition rate (229E Inhibition rate, 24 h) [%]
CC(C)=CCc1c(O)ccc2ccc(=O)oc12 [Osthenol]	14.9	
C[C@@H]1O[C@@H](O[C@H]2[C@H](Oc3cc(O)c4c(=O)cc(-c5ccc(O)cc5)oc4c3)O[C@H](CO)[C@@H](O)[C@@H]2O)[C@H](O)[C@H](O)[C@H]1O [Rhoifolin]	21	
CCCCCC[C@@H](O)C/C=C\CCCCCCCC(=O)O [Ricinoleic acid]	14.7	
COc1cc(-c2oc3cc(O)cc(O)c3c(=O)c2O[C@@H]2O[C@H](CO)[C@@H](O)[C@H](O)[C@H]2O[C@@H]2O[C@@H](C)[C@H](O)[C@@H](O)[C@H]2O)ccc1O [Isorhamnetin-3-O-neohespeidoside]	0	

The results go on:

SMILES | 229E Inhibition rate [%] | 229E Inhibition rate (229E Inhibition rate, 24 h) [%]
C=C1C[C@@]23CC[C@H]4[C@@](C)(CCC[C@@]4(C)C(=O)O)[C@@H]2CC[C@]1(O[C@@H]1O[C@H](CO)[C@@H](O)[C@H](O[C@@H]2O[C@H](CO)[C@@H](O)[C@H](O)[C@H]2O)[C@H]1O[C@@H]1O[C@H](CO)[C@@H](O)[C@H](O)[C@H]1O)C3 [Rebaudioside B] | 36.9 | 
Cc1nc(C)c(C)nc1C [Ligustrazine] |  | 16
Oc1ccc(C2COc3cc(O)ccc3C2)cc1 (racemic) [(±)-Equol] | 11 | 
C[C@H](CC(=O)C[C@](C)(O)[C@@H]1CC(=O)[C@@]2(C)C3=C(C(=O)C[C@]12C)[C@@]1(C)CC[C@H](O)C(C)(C)[C@@H]1C[C@@H]3O)C(=O)O [Ganoderic acid I] | 10.4 | 
C[C@H](CCC(=O)NCCS(=O)(=O)O)[C@H]1CC[C@H]2[C@@H]3[C@H](O)C[C@@H]4C[C@H](O)CC[C@]4(C)[C@H]3CC[C@]12C [Taurochenodeoxycholic acid] |  | 11
Cc1cnc(C)c(C)n1 [2,3,5-Trimethylpyrazine] | 6.9 | 
CC(=O)c1ccc(C)cc1O [2'-Hydroxy-4'-methylacetophenone] | 4.8 | 
c1ccc2c(c1)CCO2 [Coumaran] | 17.6 | 
Cc1ccccc1C=O [2-Methylbenzaldehyde] | 0 | 
COc1cc(O)c(CC=C(C)C)c2c1C(=O)C[C@@H](c1ccc(O)cc1)O2 [(2S)-Isoxanthohumol] | 35.3 | 
O=C(OC1O[C@@H]2COC(=O)c3cc(O)c(O)c(O)c3-c3c(cc(O)c(O)c3O)C(=O)O[C@H]2[C@H](OC(=O)c2cc(O)c(O)c(O)c2)[C@H]1OC(=O)c1cc(O)c(O)c(O)c1)c1cc(O)c(O)c(O)c1 (stereo partly drawn) [Tellimagrandin II] | 17.3 | 
O=P(O)(O)OC[C@H](O)CO [sn-Glycerol 3-phosphate] | 9 | 
Cc1cnc(C)cn1 [2,5-Dimethylpyrazine] | 5.1 | 
O=C1CCC[C@@H]2[C@H]3CCCN4CCC[C@H](CN12)[C@@H]34 [Sophoridine] | 0 | 
COc1c2c(cc3oc(CO[C@@H]4O[C@H](CO)[C@@H](O)[C@H](O)[C@H]4O)cc(=O)c13)O[C@H](C(C)(C)O)C2 [Prim-O-glucosylcimifugin] | 0 | 
CC(=O)O[C@]1(C(C)=O)CC[C@H]2[C@@H]3C[C@H](C)C4=CC(=O)CC[C@]4(C)[C@H]3CC[C@@]21C [Medroxyprogesterone acetate] | 15.8 | 
N[C@@H](Cc1ccccc1)C(=O)O [L-Phenylalanine] | 10 | 
O=c1cc(-c2ccc(O)cc2)oc2c([C@@H]3O[C@H](CO)[C@@H](O)[C@H](O)[C@H]3O)c(O)c([C@@H]3OC[C@H](O)[C@H](O)[C@H]3O)c(O)c12 [Isoschaftoside] | 20.6 | 
NCC(=O)NCC(=O)O [Glycylglycine] | 13.5 | 
C/C=C/c1ccc(OC)cc1 [Anethole] |  | 16.8

SMILES | 229E Inhibition rate [%] | 229E Inhibition rate (229E Inhibition rate, 24 h) [%]
O=C(O)/C=C/c1ccc(O)cc1 [p-Coumaric acid] | 42.5 | 
COC1=C(OC)C(=O)C(C/C=C(\C)CC/C=C(\C)CC/C=C(\C)CC/C=C(\C)CC/C=C(\C)CC/C=C(\C)CC/C=C(\C)CC/C=C(\C)CCC=C(C)C)=C(C)C1=O [Coenzyme Q9] | 8.7 | 
C=C(C)[C@H](CC=C(C)C)Cc1c(O)cc(OC)c2c1O[C@H](c1ccc(O)cc1O)[C@@H](O)C2=O [Kushenol I] | 6.5 | 
COc1cc(O)c2c(=O)cc(-c3ccc(OC)c(OC)c3)oc2c1 [7,3',4'-Tri-O-methylluteolin] | 8 | 
C=C[C@H]1[C@H](O[C@@H]2O[C@H](CO)[C@@H](O)[C@H](O)[C@H]2O)OC=C(C(=O)OC)[C@H]1CC(=O)O [Secoxyloganin] | 44.3 | 
C/C(=C/C(=O)O)C(=O)O [Citraconic acid] | 34.6 | 
Oc1cc(O)c2c(c1)O[C@@H](c1ccc(O)c(O)c1)[C@H](O)C2 [(-)-Catechin] | 19.1 | 
C[C@@]12C[C@H](c3ccoc3)O[C@@]13C[C@H](OC3=O)[C@H]1[C@H]2C[C@@H]2C[C@H]1C(=O)O2 [Diosbulbin B] | 10 | 
COc1cc([C@@H]2c3cc4c(cc3[C@@H](O[C@@H]3O[C@@H]5CO[C@@H](C)O[C@H]5[C@H](O)[C@H]3O)[C@H]3COC(=O)[C@H]23)OCO4)cc(OC)c1O [Etoposide] | 10.3 | 
C[C@@H]1O[C@@H](OC[C@H]2O[C@@H](Oc3c(-c4ccc(O)c(O)c4)oc4cc(O)cc(O)c4c3=O)[C@H](O)[C@@H](O)[C@@H]2O)[C@H](O)[C@H](O)[C@H]1O [Rutin] |  | 21.7
NC(CCS)C(=O)O (racemic) [DL-Homocysteine] | 9.4 | 
N[C@@H](Cc1c[nH]c2ccc(O)cc12)C(=O)O [5-Hydroxytryptophan] |  | 13.7
O=c1c(-c2ccc(O)cc2)coc2cc(O[C@@H]3O[C@H](CO)[C@@H](O)[C@H](O)[C@H]3O)ccc12 [Daidzin] | 20 | 
C=C1CC[C@@H]2[C@](C)(CO)[C@H](O)CC[C@@]2(C)[C@H]1C/C=C1\C=COC1=O [Dehydroandrographolide] | 6.5 | 
NC(=O)NCCCC(N)C(=O)O (stereo not drawn) [2-Amino-5-ureidopentanoic acid] | 11.5 | 
O=C(O)CC(C(=O)O)C(O)C(=O)O (racemic) [DL-Isocitric acid (trisodium salt)] | 13.8 | 
O=c1c(O)c(-c2ccc(O)cc2O)oc2cc(O)cc(O)c12 [Morin] | 31.1 | 
OC[C@H]1O[C@@H](Oc2cc(O)cc(/C=C/c3ccc(O)cc3)c2)[C@H](O)[C@@H](O)[C@@H]1O [Polydatin] | 11.9 | 
C/C=C1/CN2CCc3c([nH]c4ccccc34)[C@@H]2C[C@@H]1/C(=C/OC)C(=O)OC [Geissoschizine methyl ether] | 0 | 
O=C(/C=C/c1ccccc1)OC[C@H]1O[C@@H](O[C@@H]2OC=C[C@H]3[C@H](O)[C@@H]4O[C@]4(CO)[C@@H]23)[C@H](O)[C@@H](O)[C@@H]1O [Picroside I] | 8.1 | 

Reference: PMC12431657, “Discovery and mechanistic insights of dibenzoylmethane as a broad spectrum inhibitor of coronavirus” (PLOS Pathogens, 2025)
